The values below come from article PMC6465078 (Molecular pharmaceutics, 2018).

The target of one data set is T1, OSTα/β (Homo sapiens, UniProt Q86UW1).
T1 sequence (Q86UW1 1-340): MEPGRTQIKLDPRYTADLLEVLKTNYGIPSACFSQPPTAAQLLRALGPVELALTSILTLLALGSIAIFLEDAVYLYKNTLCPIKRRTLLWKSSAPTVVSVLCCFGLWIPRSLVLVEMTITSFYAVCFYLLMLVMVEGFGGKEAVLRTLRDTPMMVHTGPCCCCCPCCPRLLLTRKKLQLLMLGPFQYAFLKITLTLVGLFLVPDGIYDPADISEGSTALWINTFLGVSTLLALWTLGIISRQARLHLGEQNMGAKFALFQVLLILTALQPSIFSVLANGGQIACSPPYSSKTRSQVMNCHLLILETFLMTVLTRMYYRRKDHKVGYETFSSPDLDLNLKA
T1 sequence (Q86UW2 1-128 partner): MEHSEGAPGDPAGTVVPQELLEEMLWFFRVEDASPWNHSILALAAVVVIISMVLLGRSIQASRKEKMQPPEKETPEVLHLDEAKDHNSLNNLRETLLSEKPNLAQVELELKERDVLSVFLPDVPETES
Description: Inhibition of OSTα/β-mediated DHEAS uptake in OSTα/β-overexpressing Flp-In 293. In kind it is cell-based.

The conditions of data set [1]: cited from earlier work.

As for `CC(C)c1c(C(=O)Nc2ccccc2)c(-c2ccccc2)c(-c2ccc(F)cc2)n1CC[C@@H](O)C[C@@H](O)CC(=O)O` [atorvastatin], on OSTα/β (Flp-In-293, read-out: Inhibition of OSTα/β-mediated DHEAS uptake (screening)), the inhibition at 100 µM lay within 35 to 64%. Further, at OSTα/β (Method 1, up to 200 µM inhibitor, DHEAS 4 µM), the “Maximal inhibition of OSTα/β-mediated DHEAS uptake” value is “less than 50%”. For the same compound, the “Associated cases of DILI” value in data set [1] is reported as “more than 100 cases”.

As for `CCCCc1oc2ccccc2c1C(=O)c1cc(I)c(OCCN(CC)CC)c(I)c1` [amiodarone], at OSTα/β (Method 1 (10 min preincubation), test compound 100 µM, DHEAS 4 µM, 30 s uptake), the “Inhibition of OSTα/β-mediated DHEAS uptake (screening)” value is “decreased”. For the same compound, in data set [1], the “Associated cases of DILI” value is reported as “more than 100 cases”.
